Drawing on PMC6942356, this text covers binding for one substance.

Results are given in words; binding and its absence hold for the method and conditions named. In cells and extracts the contact can be indirect. A yes stands for co-enrichment or nearness to the bait. Other partners may have been found.

This assay has as its target T1, TSPAN9 (endogenous, 5-FU-resistant gastric cancer cells) (human (endogenous in AGS/R)) (UniProt O75954).
T1 sequence: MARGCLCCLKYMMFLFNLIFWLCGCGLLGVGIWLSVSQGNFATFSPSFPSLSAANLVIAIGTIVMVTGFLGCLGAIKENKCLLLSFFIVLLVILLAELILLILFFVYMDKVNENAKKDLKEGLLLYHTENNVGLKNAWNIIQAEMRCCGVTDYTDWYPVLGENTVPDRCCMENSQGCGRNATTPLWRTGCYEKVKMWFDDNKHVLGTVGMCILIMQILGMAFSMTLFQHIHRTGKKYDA
Kind of assay: affinity purification with mass spectrometry; endogenous TSPAN9 complex from drug-resistant cells; immunoprecipitate separated by SDS-PAGE, silver stained, LC-MS/MS.

Consider “PIK3R3 (p55), regulatory subunit of PI3K (from UniProt Q92569 1-461)”, for which the binding entry is “binds”.
